The target of experiment [1] is T1, Growth arrest and DNA damage protein 45 beta (Gadd45B), 3xFLAG-tagged (human) (UniProt O75293).
T1 sequence: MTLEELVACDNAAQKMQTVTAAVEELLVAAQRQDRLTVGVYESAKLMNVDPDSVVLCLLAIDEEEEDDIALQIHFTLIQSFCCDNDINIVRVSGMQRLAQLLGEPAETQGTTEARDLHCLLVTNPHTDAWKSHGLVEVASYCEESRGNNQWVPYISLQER
Nature of the experiment: co-IP; TPC-1 and Bcpap cells stably overexpressing Gadd45B-3×FLAG, transiently transfected with MAP3K4-His; lysates incubated overnight at 4 °C with anti-Flag or anti-His antibody, protein A/G agarose beads; Western blot with the reciprocal antibody.

Sequences of proteins named here, by UniProt entry; tags and fusion partners are left off.
UniProt Q9Y6R4: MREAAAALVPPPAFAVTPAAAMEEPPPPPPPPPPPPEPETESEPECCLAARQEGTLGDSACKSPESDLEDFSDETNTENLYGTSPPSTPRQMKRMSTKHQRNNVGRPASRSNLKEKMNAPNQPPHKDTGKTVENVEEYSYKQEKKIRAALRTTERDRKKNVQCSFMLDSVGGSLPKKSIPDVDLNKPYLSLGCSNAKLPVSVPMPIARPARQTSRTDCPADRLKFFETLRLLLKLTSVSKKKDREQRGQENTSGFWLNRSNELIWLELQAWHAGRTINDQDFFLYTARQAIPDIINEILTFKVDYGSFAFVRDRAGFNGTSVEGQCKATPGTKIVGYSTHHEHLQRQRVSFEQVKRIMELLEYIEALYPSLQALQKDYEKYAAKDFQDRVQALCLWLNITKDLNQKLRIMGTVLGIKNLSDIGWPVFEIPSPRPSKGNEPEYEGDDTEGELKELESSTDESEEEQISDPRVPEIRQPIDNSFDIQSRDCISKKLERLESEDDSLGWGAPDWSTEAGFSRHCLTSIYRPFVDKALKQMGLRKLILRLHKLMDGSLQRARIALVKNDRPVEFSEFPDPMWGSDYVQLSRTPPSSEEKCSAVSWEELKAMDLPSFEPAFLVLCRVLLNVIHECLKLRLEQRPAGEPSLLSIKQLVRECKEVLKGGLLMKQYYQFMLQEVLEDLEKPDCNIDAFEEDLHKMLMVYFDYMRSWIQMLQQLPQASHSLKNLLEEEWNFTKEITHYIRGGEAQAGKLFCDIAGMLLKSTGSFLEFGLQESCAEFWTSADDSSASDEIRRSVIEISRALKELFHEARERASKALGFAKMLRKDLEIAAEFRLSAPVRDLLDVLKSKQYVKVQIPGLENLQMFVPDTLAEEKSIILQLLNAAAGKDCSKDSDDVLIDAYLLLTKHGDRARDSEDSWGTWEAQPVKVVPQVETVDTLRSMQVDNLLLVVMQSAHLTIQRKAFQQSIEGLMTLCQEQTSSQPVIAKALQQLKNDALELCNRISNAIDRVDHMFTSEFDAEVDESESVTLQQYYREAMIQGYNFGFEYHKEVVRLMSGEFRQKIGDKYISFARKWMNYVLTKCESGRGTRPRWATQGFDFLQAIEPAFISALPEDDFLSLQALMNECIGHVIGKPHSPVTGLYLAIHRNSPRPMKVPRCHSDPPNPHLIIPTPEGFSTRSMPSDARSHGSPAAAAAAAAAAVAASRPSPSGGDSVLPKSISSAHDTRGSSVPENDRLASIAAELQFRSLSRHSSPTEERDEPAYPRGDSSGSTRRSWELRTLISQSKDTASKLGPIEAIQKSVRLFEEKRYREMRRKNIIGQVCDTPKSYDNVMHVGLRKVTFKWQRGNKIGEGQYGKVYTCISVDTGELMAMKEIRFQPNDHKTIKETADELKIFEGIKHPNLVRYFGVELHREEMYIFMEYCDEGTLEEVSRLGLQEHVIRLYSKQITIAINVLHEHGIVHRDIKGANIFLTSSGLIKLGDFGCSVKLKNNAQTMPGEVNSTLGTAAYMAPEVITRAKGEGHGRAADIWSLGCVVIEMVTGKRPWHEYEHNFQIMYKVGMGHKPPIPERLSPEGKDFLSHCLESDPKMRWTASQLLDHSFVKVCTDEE

The target in experiment [2] is T1, Growth arrest and DNA damage protein 45 beta (Gadd45B), 3xFLAG-tagged (human). As to the kind of experiment: co-IP; Co-IP and Western blot of Gadd45B and MYCBP in Bcpap cells; antibodies and bait not told. Background: In western blotting, separated proteins are transferred to a membrane and probed.

Experimental findings from article PMC12523365 are described below.

Results are given in words; binding and its absence hold for the method and conditions named. Binding seen in cells or lysates may run through a third protein. Some results given as binding are weak or reduced against the parent protein; the word gives no strength. Sequences can lack the tags named with a protein.

Turning to “MAP3K4, His-tagged (from UniProt Q9Y6R4 1-1608)”, the binding entry in experiment [1] is “binds”.

B1: MYC-binding protein (MYCBP) (protein, UniProt Q99417 1-103)
chain: MAHYKAADSKREQFRRYLEKSGVLDTLTKVLVALYEEPEKPNSALDFLKHHLGAATPENPEIELLRLELAEMKEKYEAIVEENKKLKAKLAQYEPPQEEKRAE
As to B1, the binding entry in experiment [2] is “binds”.
